Experimental data published in paper PMC10009755, “Discovery and Characterization of BAY-805, a Potent and Selective Inhibitor of Ubiquitin-Specific Protease USP21” (Journal of Medicinal Chemistry, 2023).

Legend:
in vitro = details: human, Caco-2, pH 7.2
Method: Caco-2 cells [purchased from the German Collection of Microorganisms and Cell Cultures (DSMZ)] were seeded at a density of 4.5 × 10^4 cells/well on 24-well insert plates [0.4 μm pore size, 0.3 cm^2 (Costar)] and grown for 13–15 days in DMEM medium supplemented with 10% fetal calf serum (FCS), 1% GlutaMAX (100×, Gibco), 100 U/mL penicillin, 100 μg/mL streptomycin (Gibco), and 1% nonessential amino acids (100×, Thermo Fischer Scientific). […] The medium was changed every 2–3 days.
The bidirectional transport assay for the evaluation of Caco-2 permeability was undertaken in 24-well insert plates using a robotic system (Tecan). Before the assay was run, the culture medium was replaced by a transport medium (FCS-free HEPES carbonate transport buffer pH 7.2). For the assessment of monolayer integrity, the transepithelial electrical resistance (TEER) was measured. Only monolayers with a TEER of at least 400 Ω·cm^2 were used. Test compounds were pre-dissolved in DMSO and added either to the apical or basolateral compartment at a final concentration of 2 μM. The evaluation was performed in triplicate. […] The efflux ratio (ER) basolateral (B) to apical (A) was calculated by dividing Papp B–A by Papp A–B.

[1] = system: panel of 10 individual USPs; test: SGC USP selectivity screen, whole panel; assay type: biochemical
[2] = system: 44 individual DUB targets
AMPKalpha1(h) = AMPKalpha1(h) (Homo sapiens, UniProt Q13131); test: biochemical
AMPKalpha2(h) = AMPKalpha2(h) (Homo sapiens, UniProt P54646); test: biochemical
PKA(h) = PKA(h) (Homo sapiens, UniProt P17612); test: biochemical

Compound | Papp B→A at 2 h, 2 µM (in vitro) [×10⁻⁶ cm/s] | remaining USP activity [1] [%] | remaining DUB activity [2] [%] | inhibition at 10 µM (AMPKalpha1(h)) [%] | inhibition at 10 µM (AMPKalpha2(h)) [%] | inhibition at 10 µM (PKA(h)) [%]
CC(C)C[C@@H](NC(=O)C1(C(F)(F)F)CCCCC1)C(=O)Nc1nnc(Cc2ccc(C#N)cc2)s1 [Compound 21, N-[(1R)-1-[[5-[(4-Cyanophenyl)methyl]-1,3,4-thiadiazol-2-yl]carbamoyl]-3-methyl-butyl]-1-(trifluoromethyl)cyclohexanecarboxamide] | 2.7 | > 50 | > 85 | 11.2 | 8.04 | 2.87
CC(C)C[C@H](NC(=O)C1(C(F)(F)F)CCCCC1)C(=O)Nc1nnc(Cc2ccc(C#N)cc2)s1 [Compound 22, CC(C)C[C@H](NC(=O)C1(CCCCC1)C(F)(F)F)C(=O)Nc2nnc(Cc3ccc(cc3)C#N)s2] | – | – | – | 7.32 | -8.56 | 4.33
